Positions count from the first letter of the chain named. These are yes or no findings as the source states them, for the method shown. Where a sequence is shown, tags or fusion partners need not be part of it.

Sequences of proteins named here, by UniProt entry; tags and fusion partners are left off. Residues count along the entry.
UniProt P49951, residues 1074-1675: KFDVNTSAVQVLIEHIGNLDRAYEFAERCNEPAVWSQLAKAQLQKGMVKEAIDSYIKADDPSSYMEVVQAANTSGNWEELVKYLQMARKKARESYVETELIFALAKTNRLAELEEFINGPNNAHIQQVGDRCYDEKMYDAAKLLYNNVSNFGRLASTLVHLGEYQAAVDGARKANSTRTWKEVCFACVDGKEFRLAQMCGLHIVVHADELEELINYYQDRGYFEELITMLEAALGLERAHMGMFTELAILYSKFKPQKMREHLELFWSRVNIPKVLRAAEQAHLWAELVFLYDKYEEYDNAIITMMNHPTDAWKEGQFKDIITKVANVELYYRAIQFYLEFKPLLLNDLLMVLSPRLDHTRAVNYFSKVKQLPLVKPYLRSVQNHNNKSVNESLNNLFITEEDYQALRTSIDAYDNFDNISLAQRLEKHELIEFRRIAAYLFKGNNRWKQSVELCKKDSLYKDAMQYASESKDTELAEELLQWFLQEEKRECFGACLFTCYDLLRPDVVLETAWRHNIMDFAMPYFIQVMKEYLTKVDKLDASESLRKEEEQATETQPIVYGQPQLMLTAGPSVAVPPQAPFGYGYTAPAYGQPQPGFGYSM

The target in assay [1] is T1, GST-HIP1h (Huntingtin-interacting protein 1, aa370-644), wild type (human) (UniProt O00291).
T1 sequence: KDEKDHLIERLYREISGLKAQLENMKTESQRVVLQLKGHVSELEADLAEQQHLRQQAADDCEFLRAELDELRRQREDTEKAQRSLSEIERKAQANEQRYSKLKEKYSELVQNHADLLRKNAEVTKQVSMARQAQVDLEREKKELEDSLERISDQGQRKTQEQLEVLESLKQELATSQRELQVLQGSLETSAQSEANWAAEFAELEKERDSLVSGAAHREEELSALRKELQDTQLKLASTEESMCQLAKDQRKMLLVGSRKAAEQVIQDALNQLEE
Put plainly: pull-down; GST or GST-HIP1h on glutathione Sepharose 4B beads; 6HisLCb and hub premixed 3:1 at 4 C for at least 30 min; 0.4 nmol hub alone or 1.9 nmol hub/6HisLCb complex; binding buffer 50 mM Tris, 200 mM KCl, 1 mM EDTA, 1% Triton X-100, 50 mM imidazole, 0.5 mg/ml ovalbumin, pH 8.0; 4 C, 1 hour; Western blot (anti-His, CON.1, anti-GST); both purified. A general note: Immunoblotting shows a protein as a band on a membrane.

Assay [2] has as its target T2, GST-HIP1h (aa370-644) K494E/R500E double mutant (human) (UniProt O00291).
T2 sequence: T1 sequence with K125E, R131E
The assay is described as above.

With “6Hishub alone (clathrin hub, bovine clathrin heavy chain aa1074-1675, no bound LCb) (from UniProt P49951 1074-1675) (domain or fragment)”, in assay [1], the binding result is “no binding (tested: 0.4 nmol of Hub Alone)”. Turning to “6Hishub/6HisLCb (clathrin hub with bound clathrin light chain b) (from UniProt P49951 1074-1675; P04975 1-228) (complex)”, the binding result in assay [2] is on record as “no binding (tested: 1.9 nmol of Hub 6HisLCb complex)”.

Source of the values: article PMC3005887 (Research letters in biochemistry, 2009).
